Measured data: PubChem BioAssay AID504764 (Drosophila RNAi Screening Center, 2011)
Purpose: 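Genome-wide screen for regulators of Notch-driven gene expression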 (primary screen). System: Drosophila Kc167 cells. Knock-down reagent: long dsRNA against Drosophila genes. Duration: about 5 days (4 days dsRNA, then 24 h after transfection). Conditions: transfection of constitutively active membrane-tethered Notch lacking the extracellular domain, read 24 h later. Measured: 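Firefly luciferase from an E(spl)m3 reporter with active Notch, plus control-promoter and uninduced reporter wells for normalisation; unnormalised counts, duplicate wells a and b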. Reading the numbers: induced reporter light, run 1, well a and induced reporter light, run 1, well b: higher = more light from the Notch target reporter with active Notch; control promoter light, run 1, well a and control promoter light, run 1, well b: higher = more light from the viral control promoter (cell number, transfection, viability); uninduced reporter light, run 1, well a: higher = more light from the Notch target reporter without active Notch. Call rule: 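Hit if the duplicate-averaged log2 ratio of induced to control-promoter light gives a plate-wise z beyond ±2, or induced to uninduced beyond ±1.8; weak-control or discordant-duplicate wells dropped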. Calls: active = modifier hit (raised or lowered Notch signal); inactive = not a hit.
In all, the deposit lists about 22,000 reagents; below is a random part of those that have a named target and a result. Over the whole deposit, 403 (1.9%) got an active call. 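Unnormalised raw counts per well; ratio z-scores behind the hit calls and whether each hit raises or lowers signal are not deposited.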 Names joined by + are all predicted targets of the reagent. Not stated in the record: the amount of reagent.

| target gene | dsRNA | induced reporter light, run 1, well a | induced reporter light, run 1, well b | control promoter light, run 1, well a | control promoter light, run 1, well b | uninduced reporter light, run 1, well a | Call |
| --- | --- | --- | --- | --- | --- | --- | --- |
| mld (GeneID 2768685) | DRSC13681 | 93210 | 88475 | 63795 | 67025 | 10382 | inactive |
| mld (GeneID 2768685) | DRSC14622 | 1.50e5 | 1.54e5 | 2.58e5 | 2.34e5 | 15390 | inactive |
| lectin-24A (GeneID 53543) | DRSC00604 | 63905 | 58080 | 69510 | 55840 | 3985 | inactive |
| rgr (GeneID 35843) | DRSC06487 | 1.33e5 | 1.22e5 | 1.27e5 | 97940 | 10585 | inactive |
| rgr (GeneID 35843) | DRSC07229 | 83300 | 97200 | 68950 | 61590 | 6765 | inactive |
| RpL22-like (GeneID 37684) | DRSC04582 | 1.86e5 | 1.66e5 | 1.63e5 | 1.64e5 | 13290 | inactive |
| CG8834 (GeneID 36356) | DRSC07283 | 1.19e5 | 1.23e5 | 1.24e5 | 1.21e5 | 9190 | active |
| CG5078 (GeneID 40276) | DRSC11762 | 1.85e5 | 1.11e5 | 1.15e5 | 1.03e5 | 9810 | inactive |
| CG18568 (GeneID 36549) | DRSC06768 | 1.34e5 | 1.29e5 | 1.37e5 | 1.36e5 | 12638 | inactive |
| CG13048 (GeneID 39789) | DRSC09929 | 1.50e5 | 1.72e5 | 1.92e5 | 1.97e5 | 12340 | inactive |
| ttm50 (GeneID 31266) | DRSC18587 | 1.36e5 | 1.78e5 | 1.87e5 | 2.26e5 | 9615 | inactive |
| Nfs1 (GeneID 34613) | DRSC02154 | 2.16e5 | 2.09e5 | 1.66e5 | 1.69e5 | 14150 | inactive |
| Nup214 (GeneID 46091) | DRSC04421 | 99955 | 90120 | 57805 | 62210 | 6640 | inactive |
| Oga (GeneID 42518) | DRSC15901 | 1.76e5 | 1.65e5 | 2.07e5 | 2.11e5 | 14115 | inactive |
| CG14671 (GeneID 40671) | DRSC12257 | 82615 | 1.03e5 | 99895 | 92025 | 6305 | inactive |
| CG18302 (GeneID 34452) | DRSC02663 | 1.20e5 | 1.28e5 | 71265 | 1.07e5 | 16660 | inactive |
| CG7881 (GeneID 35521) | DRSC04898 | 1.59e5 | 1.60e5 | 1.87e5 | 1.44e5 | 10515 | inactive |
| betaNACtes3 (GeneID 326224) | DRSC20183 | 82915 | 79800 | 1.06e5 | 90585 | 12890 | inactive |
| Sod2 (GeneID 36878) | DRSC07554 | 1.22e5 | 1.01e5 | 2.07e5 | 1.90e5 | 9095 | inactive |
| CG17362 (GeneID 39545) | DRSC10267 | 1.61e5 | 1.93e5 | 3.02e5 | 2.15e5 | 8475 | inactive |
| Lfg (GeneID 36418) | DRSC06853 | 82855 | 1.06e5 | 1.18e5 | 1.39e5 | 8855 | inactive |
| CG10802 (GeneID 31318) | DRSC17762 | 1.67e5 | 2.39e5 | 2.48e5 | 2.18e5 | 14035 | inactive |
| polo (GeneID 40232) | DRSC11384 | 1.17e5 | 1.35e5 | 71330 | 61005 | 6870 | inactive |
| larp (GeneID 53567) | DRSC14728 | 1.29e5 | 1.56e5 | 1.73e5 | 1.72e5 | 9525 | inactive |
| larp (GeneID 53567) | DRSC16984 | 97245 | 96375 | 1.29e5 | 1.15e5 | 11965 | inactive |
| Dph5 (GeneID 42663) | DRSC16653 | 94155 | 1.05e5 | 1.21e5 | 1.04e5 | 12055 | inactive |
| Srrm1 (GeneID 39483) | DRSC09835 | 1.56e5 | 1.62e5 | 1.62e5 | 1.58e5 | 6935 | inactive |

Active calls (from the list above):
| target gene | dsRNA | induced reporter light, run 1, well a | induced reporter light, run 1, well b | control promoter light, run 1, well a | control promoter light, run 1, well b | uninduced reporter light, run 1, well a | Call |
| --- | --- | --- | --- | --- | --- | --- | --- |
| CG8834 (GeneID 36356) | DRSC07283 | 1.19e5 | 1.23e5 | 1.24e5 | 1.21e5 | 9190 | active |

The list goes on.
| target gene | dsRNA | induced reporter light, run 1, well a | induced reporter light, run 1, well b | control promoter light, run 1, well a | control promoter light, run 1, well b | uninduced reporter light, run 1, well a | Call |
| --- | --- | --- | --- | --- | --- | --- | --- |
| CG42674 (GeneID 40205) | DRSC10066 | 71920 | 58160 | 1.28e5 | 1.22e5 | 4380 | inactive |
| CG42674 (GeneID 40205) | DRSC10067 | 1.38e5 | 1.34e5 | 1.90e5 | 1.35e5 | 9910 | inactive |
| CG42674 (GeneID 40205) | DRSC10811 | 1.35e5 | 1.30e5 | 1.20e5 | 97645 | 10160 | inactive |
| CG34243 (retired record) (GeneID 5740341) | DRSC09291 | 90960 | 93355 | 60355 | 43680 | 17265 | inactive |
| CG34243 (retired record) (GeneID 5740341) | DRSC09292 | 1.64e5 | 1.55e5 | 2.04e5 | 2.42e5 | 18735 | inactive |
| santa-maria (GeneID 34024) | DRSC00994 | 1.24e5 | 1.35e5 | 1.85e5 | 1.61e5 | 11605 | inactive |
| santa-maria (GeneID 34024) | DRSC02180 | 1.60e5 | 1.42e5 | 1.78e5 | 1.79e5 | 15580 | inactive |
| mei-41 (GeneID 32608) | DRSC20350 | 50205 | 45940 | 52175 | 53735 | 5210 | inactive |
| rpk (GeneID 40580) | DRSC12386 | 1.29e5 | 1.17e5 | 93945 | 1.23e5 | 8932 | inactive |
| ACXC (GeneID 34689) | DRSC00846 | 1.39e5 | 1.52e5 | 1.57e5 | 1.67e5 | 13505 | inactive |
| CG33160 (GeneID 326265) | DRSC08197 | 89110 | 1.14e5 | 2.04e5 | 1.85e5 | 6055 | inactive |
| sug (GeneID 36424) | DRSC06855 | 1.99e5 | 1.81e5 | 2.28e5 | 1.88e5 | 14510 | inactive |
| MAN1 (GeneID 37838) | DRSC04342 | 1.77e5 | 1.85e5 | 1.46e5 | 1.80e5 | 14575 | inactive |
| SLC5A11 (GeneID 34117) | DRSC03088 | 1.56e5 | 1.67e5 | 1.73e5 | 1.68e5 | 13475 | inactive |
| Bicra (GeneID 43435) | DRSC14417 | 47980 | 45175 | 70110 | 83290 | 7800 | inactive |
| CG1889 + CG43386 | DRSC17979 | 1.49e5 | 1.26e5 | 2.46e5 | 2.84e5 | 7875 | inactive |
| CG17684 (GeneID 3355066) | DRSC07724 | 84955 | 77935 | 90635 | 71040 | 7635 | inactive |
| CG17684 (GeneID 3355066) | DRSC21166 | 74845 | 78305 | 83000 | 1.28e5 | 10850 | inactive |
| Mrgn1 (GeneID 32330) | DRSC20223 | 2.05e5 | 1.90e5 | 2.81e5 | 2.59e5 | 15200 | inactive |
| mAChR-A (GeneID 37892) | DRSC04702 | 1.22e5 | 1.34e5 | 1.44e5 | 1.30e5 | 9645 | inactive |
| CG14715 (GeneID 41403) | DRSC14938 | 1.36e5 | 1.46e5 | 86605 | 74195 | 12100 | inactive |
| Cks30A (GeneID 34250) | DRSC03292 | 1.99e5 | 2.15e5 | 2.14e5 | 1.70e5 | 17605 | inactive |
| Cap-D2 (GeneID 43491) | DRSC15401 | 2.02e5 | 2.47e5 | 2.99e5 | 3.14e5 | 17300 | inactive |
